Results reported in patent publication US12703851B2, “Cell culture methods” (The University of Massachusetts, priority 2019, dated 2026).

How the values were obtained:
CHO-K1 cell line = assay: Inhibitory metabolite accumulation, CHO-K1 fed-batch process (LC-MS of culture supernatant); type: cell-based, Chinese hamster; details: for Inhibitory metabolite accumulation: CHO K1 fed batch; for Conc.: Table 2, CHO cell process
CHO K1 = assay: Inhibitory metabolite accumulation, CHO K1 batch process (LC-ESI-MS); type: cell-based, Chinese hamster; details: for Inhibitory metabolite accumulation Conc.: CHO K1, batch culture, after 6 days; for Inhibitory metabolite accumulation: CHO K1 batch, Day 6
CHO GS = assay: Inhibitory metabolite accumulation, CHO GS batch process (LC-ESI-MS); type: cell-based, Chinese hamster; details: batch culture, after 6 days
HEK 293 = assay: Inhibitory metabolite accumulation, HEK 293 batch process (LC-ESI-MS); type: cell-based, human; details: HEK 293, batch culture, after 6 days

`O=C(O)C=C(CC(=O)O)C(=O)O` [AA, aconitic acid] gave an Inhibitory metabolite accumulation (CHO-K1 cell line; Day 5) of 1238 µM, an Inhibitory metabolite accumulation (CHO-K1 cell line; Day 8) of 4026 µM and an Inhibitory metabolite accumulation (CHO-K1 cell line; Day 14) of 14359 µM. For the same molecule, the Conc. (CHO-K1 cell line) was 14359 µM, the “Inhibitory metabolite accumulation Conc.” value (CHO K1) was 1910.00 µM and the Inhibitory metabolite accumulation (CHO K1) was 1910 µM. The “Inhibitory metabolite accumulation Conc.” value (CHO GS) was 717.42 µM and the “Inhibitory metabolite accumulation Conc.” value (HEK 293) was 984.53 µM.
Work on `Nc1ccn([C@@H]2O[C@H](COP(=O)(O)O)[C@@H](O)[C@H]2O)c(=O)n1` [CMP, cytidine-5′-monophosphate] yielded an Inhibitory metabolite accumulation (CHO-K1 cell line; Day 5) of 1.14 µM, an Inhibitory metabolite accumulation (CHO-K1 cell line; Day 8) of 5.82 µM and an Inhibitory metabolite accumulation (CHO-K1 cell line; Day 14) of 11.27 µM. For the same molecule, the Conc. (CHO-K1 cell line) was 11.27 µM, the “Inhibitory metabolite accumulation Conc.” value (CHO K1) was 11.69 µM and the Inhibitory metabolite accumulation (CHO K1) was 11.69 µM. For the same molecule, the “Inhibitory metabolite accumulation Conc.” value (CHO GS) was 78.51 µM and the “Inhibitory metabolite accumulation Conc.” value (HEK 293) was 2.43 µM.
With `Nc1nc2c(ncn2[C@@H]2O[C@H](COP(=O)(O)O)[C@@H](O)[C@H]2O)c(=O)[nH]1` [GMP, Guanosine monophosphate] the Conc. (CHO-K1 cell line) was 20 µM.
`CC(C)CC(O)C(=O)O` (stereo not drawn) [HICA, α-hydroxyisocaproic acid] gave an Inhibitory metabolite accumulation (CHO-K1 cell line; Day 5) of 8.53 µM, an Inhibitory metabolite accumulation (CHO-K1 cell line; Day 8) of 26.95 µM and an Inhibitory metabolite accumulation (CHO-K1 cell line; Day 14) of 64.09 µM. For the same molecule, the Conc. (CHO-K1 cell line) was 64.09 µM, the “Inhibitory metabolite accumulation Conc.” value (CHO K1) was 10.62 µM and the Inhibitory metabolite accumulation (CHO K1) was 10.62 µM. For the same molecule, the “Inhibitory metabolite accumulation Conc.” value (CHO GS) was 31.63 µM and the “Inhibitory metabolite accumulation Conc.” value (HEK 293) was 53.80 µM.
Work on `O=C(O)c1c[nH]c2ccccc12` [ICA, indole-3-carboxylic acid, reference compound] yielded a Conc. (CHO-K1 cell line) of 2.5 µM.
In the case of `CC(CC(=O)O)C(=O)O` (centres unmarked) [MSA, methylsuccinic acid], the Inhibitory metabolite accumulation (CHO-K1 cell line; Day 5) is reported as 1.3 µM, the Inhibitory metabolite accumulation (CHO-K1 cell line; Day 8) is reported as 5.62 µM and the Inhibitory metabolite accumulation (CHO-K1 cell line; Day 14) is reported as 13.59 µM. For the same molecule, the Conc. (CHO-K1 cell line) was 13.59 µM, the “Inhibitory metabolite accumulation Conc.” value (CHO K1) was 3.97 µM and the Inhibitory metabolite accumulation (CHO K1) was 3.97 µM. For the same molecule, the “Inhibitory metabolite accumulation Conc.” value (CHO GS) was 2.59 µM and the “Inhibitory metabolite accumulation Conc.” value (HEK 293) was 1.55 µM.
Work on `CC(=O)NCCCCN` [NAP, N-acetylputrescinium] yielded an Inhibitory metabolite accumulation (CHO-K1 cell line; Day 5) of 0.096 µM, an Inhibitory metabolite accumulation (CHO-K1 cell line; Day 8) of 0.178 µM and an Inhibitory metabolite accumulation (CHO-K1 cell line; Day 14) of 0.196 µM. The Conc. (CHO-K1 cell line) was 0.196 µM, the “Inhibitory metabolite accumulation Conc.” value (CHO K1) was 0.16 µM and the Inhibitory metabolite accumulation (CHO K1) was 0.164 µM. The “Inhibitory metabolite accumulation Conc.” value (CHO GS) was 0.20 µM and the “Inhibitory metabolite accumulation Conc.” value (HEK 293) was 0.17 µM.
In the case of `C[n+]1cccc(C(=O)[O-])c1` [TRI, trigonelline], the Inhibitory metabolite accumulation (CHO-K1 cell line; Day 5) is reported as 0.018 µM, the Inhibitory metabolite accumulation (CHO-K1 cell line; Day 8) is reported as 0.132 µM and the Inhibitory metabolite accumulation (CHO-K1 cell line; Day 14) is reported as 0.812 µM. For the same molecule, the Conc. (CHO-K1 cell line) was 0.812 µM, the “Inhibitory metabolite accumulation Conc.” value (CHO K1) was 0.09 µM and the Inhibitory metabolite accumulation (CHO K1) was 0.085 µM. For the same molecule, the “Inhibitory metabolite accumulation Conc.” value (CHO GS) was 0.81 µM and the “Inhibitory metabolite accumulation Conc.” value (HEK 293) was 0.02 µM.
